Laboratory results reported in patent US10815283B2, “Peptides for treatment of diabetes” (Follicum AB, priority 2017, dated 2020).
At least one peptide structure holds a part that was inferred or is arguable (an end, a ring closure or a residue). No end group written: not given here.

Experiments:
[1] = system: INS-1 cells; assay: Proliferation of INS-1 cells, [methyl-3H] thymidine incorporation; format: cell-based, rat; settings: wells coated with peptide and blocked with BSA, vs control coated wells
Procedure: To investigate if FOL-005 and FOL-014 could induce proliferation of β-cells we used INS-1 cells. Rat INS-1 cells were seeded in 96-well plates in RPMI medium with supplement and after 2 hours the medium was changed to RPMI without supplement. During the proliferation experiment the cells were incubated at different test conditions (FOL-005, FOL-014, coated or in solution, 48 h incubation) and during the last 20 hours of culture period the cells were pulsed with 1μ Ci/well of [methyl-3H] thymidine. The cells were then harvested onto glass fiber filters using a FilterMate harvester. The filters were air dried, and the bound radioactivity was measured using a liquid scintillation counter. To study whether FOL-005 influenced β-cell proliferation, INS-1 cells were treated with increasing amounts of soluble FOL-005 (0.06-6 μM) during 48 hours and proliferation was measured with radiolabeled thymidine incorporation into newly synthesized DNA.

[2] = system: INS-1 β-cells; assay: Insulin secretion from INS-1 cells, insulin radioimmunoassay (Examples 4 and 6); format: cell-based, rat; settings: Example 6, FOL-014 6 μM, 60 min, KRB buffer
Procedure: To investigate the stimulatory effect of FOL-005 on insulin secretion, INS-1 β-cells were used in the following experiments. Cells were seeded overnight in cRPMI and then washed with PBS before pre-incubation for 60 min at 37° C. in Krebs-Ringer bicarbonate buffer (KRB), pH 7.4, supplemented with 10 mM HEPES, 0.1% bovine serum albumin. After pre-incubation, the buffer was changed and the INS-1 cells were incubated at different test conditions (0 mM, 5 mM or 20 mM glucose) and stimulated with peptide FOL-005 or FOL-015 (SEQ ID NO: 158) or left untreated during 60 min at 37° C. Immediately after incubation, an aliquot of the buffer was removed and frozen for subsequent assay of insulin with an insulin radioimmunoassay kit.
INS-1 β-cells were used to investigate the stimulatory effect of FOL-014 on insulin secretion. Cells were seeded overnight and then washed with PBS before pre-incubation for 60 min at 37° C. in Krebs-Ringer bicarbonate buffer (KRB), pH 7.4, supplemented with 10 mM HEPES, 0.1% bovine serum albumin. After pre-incubation, the buffer was changed and the INS-1 cells were incubated in new KRB buffer supplemented with 10 mM HEPES, 0.1% bovine serum albumin and stimulated with peptide FOL-014 or left untreated during 60 min at 37° C. Immediately after incubation, an aliquot of the buffer was removed and frozen for subsequent assay of insulin.

[3] = system: mouse pancreatic islets; assay: Insulin secretion from isolated mouse pancreatic islets (Examples 5 and 7); format: cell-based; settings: Example 7, 5 islets per well, 60 min
Procedure: Mouse pancreatic islets were isolated from 8-week old C57BL/6J male mice (Taconic). Mice were sacrificed by an overdose of isoflurane and cervical dislocation. 3 ml of 0.9 U/ml collagenase P was injected into the pancreatic duct to inflate the pancreas. The pancreas was then removed and collagen digested for 19 min at 37° C. The samples were vigorously shaken to disrupt the tissue. The digest was transferred into ice cold Hank's Balanced Salt Solution (HBSS) with Ca^2+ and Mg^2+. The suspension was allowed to sit for 10 min to allow the islet to sink, and the islets were washed in fresh HBSS four times. The islets were then hand-picked and sorted according to size. Islets (n=3 per well in a 96 well plate) were pre-incubated in KRB buffer during 10 min 37° C., pH 7.4, supplemented with 10 mM HEPES, 0.1% bovine serum albumin. After pre-incubation, the buffer was changed and islets were incubated at different test conditions in new KRB buffer with 0.1% bovine serum albumin (non-treated ctrl, FOL-005 peptide, or GLP-1) for 60 min at 37° C. Immediately after incubation, an aliquot of the buffer was removed and frozen for subsequent assay of insulin.
Mouse pancreatic islets were isolated from 8-week old C57BL/6J male mice as described under example 5. The islets were then hand-picked and sorted according to size. […]

[4] = system: Rat INS-1 β-cells; assay: Insulin secretion from INS-1 cells, insulin ELISA (Examples 8-11); format: cell-based; settings: for insulin secretion, dose dependence / insulin release: 16.7 mM glucose
[5] = system: isolated mouse islets; assay: Insulin and glucagon secretion from isolated mouse islets at low and high glucose (Example 12); format: cell-based
Procedure: Twelve-week-old male C57/bl6 mice were euthanized with isoflurane and cervical dislocation. After clamping the hepatic ducts, 3 ml of 0.9 U/ml collagenase P was injected into the bile duct to inflate the pancreas. The pancreas was then removed and digested for 19 min at 37° C. The samples were vigorously shaken to disrupt the tissue. The digest was quickly transferred into ice cold Hank's Balanced Salts Solution with Ca^2+ and Mg^2+. The suspension was allowed to sit for 8 min to allow the islet to sink, and the islets were washed in the same manner four times. The islets were then handpicked and sorted according to size.
Freshly isolated islets were seeded in groups of 5 in a 96-well plate and preincubated for 1 h at 37° C. in a Krebs-Ringer bicarbonate buffer (pH 7.4). The islets were incubated for 1 h at 37° C. in Krebs-Ringer buffered solution supplemented with 0.6 or 6 μM FOL-014 or 100 nM GLP-1 or left unsupplemented for control. Immediately after incubation, the medium was removed for assays of insulin and glucagon using Mercodia's ELISA kits. The effect of FOL-014 on insulin (FIGS. 8A and B) and glucagon (FIGS. 8C and D) secretion from isolated mouse islets was measured in the presence of low glucose (2.8 mM; FIGS. 8A and C) or high glucose (16.7 mM; FIGS. 8B and D) concentrations.

[6] = system: wild type C57bl/6 mice; assay: Intraperitoneal glucose tolerance test (IPGTT); format: in vivo, mouse; settings: vs saline control
[7] = system: BB lyp/lyp rats; assay: Onset of type 1 diabetes in BB lyp/lyp rats; format: in vivo, rat; settings: 100 nmol/kg subcutaneously
[8] = low glucose (2.8 mM), FOL-014 0.6 or 6 μM, 1 h

KPLAEIDSIELSYGIK [FOL-014, KPLAEIDSIELSYGIK]
INS-1 cell proliferation (radiolabeled thymidine incorporation) [1]: stimulated proliferation compared to control (ctrl) coated wells | insulin secretion [2]: secreted more insulin compared to unstimulated control cells | insulin secretion ([3]; peptide 0.6 μM): did not affect insulin secretion | insulin secretion ([3]; peptide 6 μM): secreted more insulin compared to unstimulated control islets | insulin secretion, glucose dependence ([4]; 60 nM FOL-014, increasing concentrations of glucose): insulin secretion increased significantly in a glucose dependent fashion already from 5.5 mM glucose | insulin secretion, dose dependence ([4]; FOL-014 0.6-60 nM): insulin secretion increased in a linear fashion | insulin release ([4]; FOL-014 at 6 nM or higher, compared with GLP-1): insulin release within the same range as 100 mM GLP-1 | insulin secretion, dose dependence ([4]; FOL-014 concentrations 600 nM): did not increase the insulin secretion | insulin release ([4]; all concentrations of FOL-014 tested, vs untreated control): significantly higher insulin release as compared with the untreated control | insulin secretion ([5]; high glucose (16.7 mM), 600 nM FOL-014, 1 h): significantly increased insulin secretion | insulin secretion ([5]; high glucose (16.7 mM), 6 μM FOL-014, 1 h): but not 6 μM FOL-014, significantly increased insulin secretion | glucagon secretion ([5]; high glucose (16.7 mM), both concentrations of FOL-014 (0.6 and 6 μM), 1 h): efficiently reduced glucagon secretion | glucagon secretion [5, 8]: reduced glucagon secretion as compared with control and GLP-1 | insulin secretion [5, 8]: did not increase insulin secretion | plasma glucose levels at single time points ([6]; 30 nmol/kg ip, 45 minutes after glucose injection): lowered the plasma glucose levels with a significant effect at 45 minutes | plasma glucose levels at single time points ([6]; 200 nmol/kg ip, 15, 30 and 45 minutes after glucose injection): difference was significant at 15, 30 and 45 minutes | plasma glucose levels, area under the curve ([6]; 200 nmol/kg ip, 15 min before 2 g of glucose/kg ip): significantly lowered the plasma glucose levels as compared to the control | average age for onset of type 1 diabetes, difference to placebo ([7]; 3 times/week from day 40): significant | percentage of animals developing type 1 diabetes per day, difference to placebo ([7]; 3 times/week from day 40): significant | onset of type 1 diabetes (plasma glucose levels 11.1 mM) ([7]; 3 times/week from day 40, vs placebo): significantly delayed the onset of type-1 diabetes
